Results from patent publication US20090221505A1, “COMPOSITIONS AND METHODS RELATED TO SYNCHRONOUS SELECTION OF HOMING PEPTIDES FOR MULTIPLE TISSUES BY IN VIVO PHAGE DISPLAY” (priority 2004, published 2009).
No constants are given. Whether binding was seen depends on the method and setting. Some results given as binding are weak or reduced against the parent protein; the word gives no strength.

T1: purified recombinant rabbit PRLR (Protein Laboratories Rehovot, Israel) (rabbit) (UniProt P14787)
T1 sequence (looked up): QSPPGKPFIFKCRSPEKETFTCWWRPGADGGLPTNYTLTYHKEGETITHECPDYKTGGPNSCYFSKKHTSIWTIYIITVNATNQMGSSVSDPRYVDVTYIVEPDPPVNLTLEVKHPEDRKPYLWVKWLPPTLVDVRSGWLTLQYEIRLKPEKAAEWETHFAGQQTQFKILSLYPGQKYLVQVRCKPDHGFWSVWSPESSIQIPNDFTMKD


biological target: T1, purified recombinant rabbit PRLR (Protein Laboratories Rehovot, Israel) (rabbit); assay: phage biopanning on immobilized recombinant rabbit PRLR

Binder	binding
SGPTGRA (peptide, not shown: large carriers) [phage displaying motif SGPTGRA]	binds
QVHSSAY (peptide, not shown: large carriers) [phage displaying motif QVHSSAY]	binds
SGATGRA (peptide, not shown: large carriers) [phage displaying motif SGATGRA]	binds
LPTLSLN (peptide, not shown: large carriers) [phage displaying motif LPTLSLN]	binds
VFSDYKR (peptide, not shown: large carriers) [phage displaying motif VFSDYKR]	binds
